Source: publication PMC5552905, “Mechanisms of peptide sex pheromone regulation of conjugation in Enterococcus faecalis” (MicrobiologyOpen, 2017)

Test system: PrgX
Assay: Size exclusion chromatography: PrgX oligomerization state in solution
Set-up: species or system Enterococcus faecalis
Conditions: Superdex 200 Hiload 16/600, 20 mmol L^−1 Tris–HCl pH 8.0, 300 mmol L^−1 NaCl, absence of DNA

Molecule | apparent mass (size exclusion chromatography) (UV 280) [KDa] | oligomerization state in solution
PrgX: master transcription regulator PrgX, a repressor of transcription of the prgQ operon; apo form is a dimer in solution (protein, left off: His tag, end not stated, kept, master transcription regulator PrgX, a repressor of transcription of the prgQ operon; apo form is a dimer in solution) MFKIGSVLKQIRQELNYHQIDLYSGIMSKSVYIKVEADSRPISVEELSKFSERLGVNFFEILNRAGMNTKSVNETGKEKLLISKIFTNPDLFDKNFQRIEPKRLTSLQYFSIYLGYISIAHHYNIEVPTFNKTITSDLKHLYDKRTTFFGIDYEIVSNLLNVLPYEEVSSIIKPMYPIVDSFGKDYDLTIQTVLKNALTISIMNRNLKEAQYYINQFEHLKTIKNISINGYYDLEINYLKQIYQFLTDKNIDSYLNAVNIINIFKIIGKEDIHRSLVEELTKISAKEKFTPPKEVTMYYENYVAIENNPIPEIKEQS | 74 | eluted as a dimer
PrgX‐I: PrgX/iCF10 complex (tetramer), purified by nickel affinity and size exclusion chromatography (protein, left off: His tag, end not stated, kept) chain 1: MFKIGSVLKQIRQELNYHQIDLYSGIMSKSVYIKVEADSRPISVEELSKFSERLGVNFFEILNRAGMNTKSVNETGKEKLLISKIFTNPDLFDKNFQRIEPKRLTSLQYFSIYLGYISIAHHYNIEVPTFNKTITSDLKHLYDKRTTFFGIDYEIVSNLLNVLPYEEVSSIIKPMYPIVDSFGKDYDLTIQTVLKNALTISIMNRNLKEAQYYINQFEHLKTIKNISINGYYDLEINYLKQIYQFLTDKNIDSYLNAVNIINIFKIIGKEDIHRSLVEELTKISAKEKFTPPKEVTMYYENYVAIENNPIPEIKEQS chain 2: AITLIFI |  | consistent with tetramers
PrgX‐C: PrgX/cCF10 complex (tetramer), purified by nickel affinity and size exclusion chromatography (protein, left off: His tag, end not stated, kept) chain 1: MFKIGSVLKQIRQELNYHQIDLYSGIMSKSVYIKVEADSRPISVEELSKFSERLGVNFFEILNRAGMNTKSVNETGKEKLLISKIFTNPDLFDKNFQRIEPKRLTSLQYFSIYLGYISIAHHYNIEVPTFNKTITSDLKHLYDKRTTFFGIDYEIVSNLLNVLPYEEVSSIIKPMYPIVDSFGKDYDLTIQTVLKNALTISIMNRNLKEAQYYINQFEHLKTIKNISINGYYDLEINYLKQIYQFLTDKNIDSYLNAVNIINIFKIIGKEDIHRSLVEELTKISAKEKFTPPKEVTMYYENYVAIENNPIPEIKEQS chain 2: LVTLVFV |  | consistent with tetramers
